PubChem BioAssay AID1259254, NCATS – 2017

Purpose: 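Gene knock-downs that lead to re-replication, shown by excess G2 DNA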 (primary screen)
System: human HCT116 colorectal cancer cells
Reagent: single siRNA against human genes
Time to read-out: 3 days
Detection: 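Nuclei stained with Hoechst and imaged; cell-cycle phase assigned by DNA content; G2 share scaled per plate, non-targeting siRNA 0%, GMNN siRNA 100%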
Direction: G2 robust z-score: higher = more G2 cells, more excess DNA replication
Hit rule: 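Active siRNAs have a G2 robust z of 5 or more median absolute deviations over the median, which in these data means about 38% or higher of GMNN control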
This is one part, drawn at random, of about 59,000 reagents tested. About 1,550 of all reagents (2.6%) count as active. 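G2 share is only a proxy for re-replication; each gene was hit by three separate siRNAs, and active genes were retested.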 Entries without a mark were called inactive. Reagents against one gene are numbered here. Not all columns of the deposit are shown. Not stated in the record: the amount of reagent.

Against BCRP3 #1 the deposit lists G2 robust z-score 0.747. BCRP3 #2 showed G2 robust z-score 0.0324. For BCRP3 #3, the values are G2 robust z-score 1.69. Silencing of FAM238C #1 resulted in: G2 robust z-score -0.553. For FAM238C #2 the deposit lists G2 robust z-score 5.5 (active). Against FAM238C #3 the deposit lists G2 robust z-score 2.77.

FAAP20 #1 showed G2 robust z-score 0.0316. After knock-down of FAAP20 #2, the screen gave G2 robust z-score -0.638. FAAP20 #3 gave G2 robust z-score 1.06. Against FXYD5 #1, the entry reads G2 robust z-score -0.246. With knock-down of FXYD5 #2 the results were G2 robust z-score -0.676. With knock-down of FXYD5 #3 the results were G2 robust z-score 0.565.

Targets above whose target name begins with B or b (3):
BCRP3 #1 → G2 robust z-score: 0.747
BCRP3 #2 → G2 robust z-score: 0.0324
BCRP3 #3 → G2 robust z-score: 1.69

Continued:
For RHBG #1, the values are G2 robust z-score 3.99. Depletion of RHBG #2 gave: G2 robust z-score -0.991. RHBG #3 showed G2 robust z-score -0.816. MDN1 #1 gave G2 robust z-score 0.0312. MDN1 #2 showed G2 robust z-score 0.313. MDN1 #3 gave G2 robust z-score -0.142.

Depletion of VRK3 #1 came out at: G2 robust z-score -1.04. VRK3 #2 showed G2 robust z-score 0.406. VRK3 #3 showed G2 robust z-score -0.385. For CRLF3P1 #1, the values are G2 robust z-score 2.17. Against CRLF3P1 #2, the entry reads G2 robust z-score -0.727. CRLF3P1 #3 showed G2 robust z-score 1.74.
